For this assay, the target named is T1, Schlafen family member 11 (SLFN11), Myc-FLAG-tagged, doxycycline-inducible (human) (UniProt Q7Z7L1).
T1 sequence: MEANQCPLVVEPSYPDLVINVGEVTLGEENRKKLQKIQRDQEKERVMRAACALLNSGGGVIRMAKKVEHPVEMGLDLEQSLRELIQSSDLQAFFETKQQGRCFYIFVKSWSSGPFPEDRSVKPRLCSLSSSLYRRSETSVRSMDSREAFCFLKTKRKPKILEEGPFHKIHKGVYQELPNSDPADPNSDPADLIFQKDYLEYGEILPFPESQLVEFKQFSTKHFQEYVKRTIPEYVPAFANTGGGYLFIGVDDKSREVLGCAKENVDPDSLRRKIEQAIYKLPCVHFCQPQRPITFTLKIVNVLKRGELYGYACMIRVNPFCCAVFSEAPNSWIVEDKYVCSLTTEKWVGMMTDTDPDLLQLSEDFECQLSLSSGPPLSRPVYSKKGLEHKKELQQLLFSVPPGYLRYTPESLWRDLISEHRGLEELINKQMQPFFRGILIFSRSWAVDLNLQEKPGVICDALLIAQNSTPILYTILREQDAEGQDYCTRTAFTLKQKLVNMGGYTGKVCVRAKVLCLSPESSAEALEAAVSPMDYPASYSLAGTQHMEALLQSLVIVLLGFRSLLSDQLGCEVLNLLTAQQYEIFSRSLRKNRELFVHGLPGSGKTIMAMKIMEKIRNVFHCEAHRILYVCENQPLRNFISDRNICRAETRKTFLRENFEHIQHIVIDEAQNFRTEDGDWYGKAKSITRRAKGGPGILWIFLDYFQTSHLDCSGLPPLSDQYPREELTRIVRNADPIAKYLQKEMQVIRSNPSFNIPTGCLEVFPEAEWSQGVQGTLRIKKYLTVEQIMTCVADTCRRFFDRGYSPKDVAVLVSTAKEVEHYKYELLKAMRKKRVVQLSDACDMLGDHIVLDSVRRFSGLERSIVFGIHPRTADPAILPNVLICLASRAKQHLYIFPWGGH
As to the kind of experiment: co-IP; IP of SLFN11-FLAG with FLAG-M2-conjugated sepharose beads from NP-40 lysates of DOX-induced LN229-SLFN11-Myc-FLAG cells, untreated or irradiated with 8 Gy for 30 minutes; immunoblot. For orientation: In western blotting, separated proteins are transferred to a membrane and probed.

These are yes or no findings as the source states them, for the method shown. Binding seen in cells or lysates may run through a third protein. Some results given as binding are weak or reduced against the parent protein; the word gives no strength. Tags and fused reporters may be left off the sequences shown.

We go through one molecule from PMC9648417.

B1: NFκB2 (NFκB2/p100) (protein, UniProt Q00653-1 1-900)
chain: MESCYNPGLDGIIEYDDFKLNSSIVEPKEPAPETADGPYLVIVEQPKQRGFRFRYGCEGPSHGGLPGASSEKGRKTYPTVKICNYEGPAKIEVDLVTHSDPPRAHAHSLVGKQCSELGICAVSVGPKDMTAQFNNLGVLHVTKKNMMGTMIQKLQRQRLRSRPQGLTEAEQRELEQEAKELKKVMDLSIVRLRFSAFLRASDGSFSLPLKPVISQPIHDSKSPGASNLKISRMDKTAGSVRGGDEVYLLCDKVQKDDIEVRFYEDDENGWQAFGDFSPTDVHKQYAIVFRTPPYHKMKIERPVTVFLQLKRKRGGDVSDSKQFTYYPLVEDKEEVQRKRRKALPTFSQPFGGGSHMGGGSGGAAGGYGGAGGGGSLGFFPSSLAYSPYQSGAGPMGCYPGGGGGAQMAATVPSRDSGEEAAEPSAPSRTPQCEPQAPEMLQRAREYNARLFGLAQRSARALLDYGVTADARALLAGQRHLLTAQDENGDTPLHLAIIHGQTSVIEQIVYVIHHAQDLGVVNLTNHLHQTPLHLAVITGQTSVVSFLLRVGADPALLDRHGDSAMHLALRAGAGAPELLRALLQSGAPAVPQLLHMPDFEGLYPVHLAVRARSPECLDLLVDSGAEVEATERQGGRTALHLATEMEELGLVTHLVTKLRANVNARTFAGNTPLHLAAGLGYPTLTRLLLKAGADIHAENEEPLCPLPSPPTSDSDSDSEGPEKDTRSSFRGHTPLDLTCSTKVKTLLLNAAQNTMEPPLTPPSPAGPGLSLGDTALQNLEQLLDGPEAQGSWAELAERLGLRSLVDTYRQTTSPSGSLLRSYELAGGDLAGLLEALSDMGLEEGVRLLRGPETRDKLPSTAEVKEDSAYGSQSVEQEAEKLGPPPEPPGGLCHGHPQPQVH
As for B1, the binding result is given as “binds”.
